Here are results for one substance from PMC4305327.

The chains behind the UniProt entries cited, without tags or fusion partners.
UniProt P48436: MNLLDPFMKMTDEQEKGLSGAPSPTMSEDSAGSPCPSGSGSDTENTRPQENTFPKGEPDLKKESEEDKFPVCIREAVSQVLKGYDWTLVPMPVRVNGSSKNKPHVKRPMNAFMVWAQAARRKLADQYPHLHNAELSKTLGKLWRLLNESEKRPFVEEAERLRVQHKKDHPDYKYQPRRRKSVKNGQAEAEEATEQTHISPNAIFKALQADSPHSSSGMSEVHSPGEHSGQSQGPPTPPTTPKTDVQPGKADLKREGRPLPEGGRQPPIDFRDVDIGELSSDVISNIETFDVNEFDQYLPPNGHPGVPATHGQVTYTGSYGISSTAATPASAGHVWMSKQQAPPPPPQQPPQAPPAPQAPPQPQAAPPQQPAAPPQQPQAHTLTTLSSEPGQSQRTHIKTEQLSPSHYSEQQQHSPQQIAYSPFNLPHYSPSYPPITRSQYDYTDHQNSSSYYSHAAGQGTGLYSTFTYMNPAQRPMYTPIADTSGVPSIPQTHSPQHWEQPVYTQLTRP
UniProt Q01844: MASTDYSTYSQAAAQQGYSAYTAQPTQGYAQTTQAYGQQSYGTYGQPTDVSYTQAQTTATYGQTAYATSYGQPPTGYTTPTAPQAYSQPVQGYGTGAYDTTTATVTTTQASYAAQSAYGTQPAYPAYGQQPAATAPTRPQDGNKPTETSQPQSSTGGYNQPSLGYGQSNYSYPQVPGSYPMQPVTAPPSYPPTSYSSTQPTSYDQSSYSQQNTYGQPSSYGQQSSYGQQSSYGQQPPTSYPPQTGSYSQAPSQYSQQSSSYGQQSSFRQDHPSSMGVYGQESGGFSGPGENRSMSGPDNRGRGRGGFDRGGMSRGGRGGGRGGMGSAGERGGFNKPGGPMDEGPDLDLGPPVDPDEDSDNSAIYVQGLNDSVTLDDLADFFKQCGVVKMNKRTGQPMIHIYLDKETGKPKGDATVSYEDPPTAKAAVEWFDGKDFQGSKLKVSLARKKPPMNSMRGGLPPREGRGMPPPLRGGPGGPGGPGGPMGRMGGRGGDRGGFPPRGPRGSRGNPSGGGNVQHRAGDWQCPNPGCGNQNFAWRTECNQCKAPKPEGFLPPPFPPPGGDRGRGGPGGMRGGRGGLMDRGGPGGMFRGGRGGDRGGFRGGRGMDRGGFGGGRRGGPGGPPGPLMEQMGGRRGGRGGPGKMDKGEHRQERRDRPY

These are yes or no findings as the source states them, for the method shown. In cells and extracts the contact can be indirect. Some results given as binding are weak or reduced against the parent protein; the word gives no strength.

The target of the assay is FLAG-tagged SOX9, human (human) (UniProt P48436). Description: co-IP; lysate of HeLa cells transfected with FLAG-SOX9 (or empty vector, or untransfected) in 2 mM Tris pH 7.6, 1% Triton X-100, 1 mM EDTA, 150 mM NaCl; anti-FLAG antibody or anti-mouse IgG control on protein G beads, 4°C, 1 hour; blot with anti-EWS.

Turning to “EWS (EWSR1, Ewing sarcoma breakpoint region 1), human (from UniProt Q01844 1-656)”, the binding result is reported as “binds”.
